Earlier results, collected in patent US5756145A, “Durable, Resilient and effective antimicrobial coating for medical devices and method of coating therefor” (priority 1995, dated 1998).

System: bacterial and fungal organisms
Conditions: general statement; cited from earlier work

In the case of `CCCCCCCCCCCCCCCC[n+]1ccccc1` [Cetylpyridinium Chloride, 1-Hexadecylpridinium chloride], the “spectrum of antimicrobial activity” value is given as “activity against gram-positive bacteria and Candida”.
